In ChEMBL document CHEMBL4513158, “CO-ADD screening of RKDF (India) compounds”:
The other results are listed elsewhere or left out. Results with a measured potency or affinity are listed apart.

Each compound was assayed on Acinetobacter baumannii. Conditions: Concentration 32 ug.mL-1; ASSAY_TEST Inhibition of Bacterial Growth; detection method Absorption (OD600); MEDIA CAMHB; plate type 384well; NBS; CORNING #3640; time 18 hr.

Row | Compound | Inhibition [%]
1 | CN(C)C(=N)NC(=N)N.Cl [METFORMIN HYDROCHLORIDE] | 16.43
2 | C=C[C@H]1[C@H](O[C@@H]2O[C@H](CO)[C@@H](O)[C@H](O)[C@H]2O)OC=C2C(=O)OCC[C@]21O [SWERTIAMARIN] | 18.59
